Measurements as given in PMC4772808, “Insights from the reconstitution of the divergent outer kinetochore of Drosophila melanogaster” (Open Biology, 2016).
No constants are given. Whether binding was seen depends on the method and setting. Binding calls can cover weak binding; strength is not graded here.

Sequences of proteins named here, by UniProt entry; tags and fusion partners are left off. A change or cut given only in a name is not applied to a line headed by its entry.
UniProt Q9VS01: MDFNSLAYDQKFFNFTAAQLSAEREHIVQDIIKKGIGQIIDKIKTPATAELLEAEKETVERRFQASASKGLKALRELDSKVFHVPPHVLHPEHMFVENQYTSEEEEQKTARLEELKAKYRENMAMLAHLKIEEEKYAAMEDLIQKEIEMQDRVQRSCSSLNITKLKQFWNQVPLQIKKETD
UniProt Q7JZC9: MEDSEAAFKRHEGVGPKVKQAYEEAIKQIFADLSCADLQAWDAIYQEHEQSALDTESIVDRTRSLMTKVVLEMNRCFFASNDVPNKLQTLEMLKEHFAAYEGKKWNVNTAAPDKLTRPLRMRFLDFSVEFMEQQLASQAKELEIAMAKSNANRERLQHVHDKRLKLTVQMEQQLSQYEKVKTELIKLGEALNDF
UniProt Q8IPW3: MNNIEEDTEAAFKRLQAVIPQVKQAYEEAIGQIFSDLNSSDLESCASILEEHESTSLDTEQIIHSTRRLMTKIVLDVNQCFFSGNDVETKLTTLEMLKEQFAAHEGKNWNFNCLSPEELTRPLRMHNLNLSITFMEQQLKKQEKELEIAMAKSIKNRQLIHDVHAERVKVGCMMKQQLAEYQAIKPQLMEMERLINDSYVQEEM
UniProt Q9VYX4: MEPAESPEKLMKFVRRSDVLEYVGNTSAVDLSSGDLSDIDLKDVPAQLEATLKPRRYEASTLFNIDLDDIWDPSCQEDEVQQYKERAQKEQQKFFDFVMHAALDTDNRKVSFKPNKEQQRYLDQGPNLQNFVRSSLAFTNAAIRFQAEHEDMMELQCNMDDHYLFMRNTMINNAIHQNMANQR

What was measured:
[1] = target: DmMis12 (Mis12 subunit of the Drosophila Mis12 complex) (Drosophila melanogaster) (UniProt Q9VS01); experiment: cross-linking; about 0.8 mg/ml complex with 0.6 mM BS2G-H6/D6, 30 min at 37°C, digestion, LC-MS/MS, xQUEST (FDR < 0.05); both purified
[2] = target: DmMis12 (Mis12 subunit of the Drosophila Mis12 complex) (Drosophila melanogaster) (UniProt Q9VS01); experiment: co-expression in E. coli (soluble complex or incorporation into a complex); subunits or deletion mutants co-expressed from pST44 in E. coli; soluble complex looked for in the bacterial cell lysate
[3] = target: DmNnf1a (Drosophila melanogaster) (UniProt Q7JZC9); experiment: cross-linking; about 0.8 mg/ml complex with 0.6 mM BS2G-H6/D6, 30 min at 37°C, digestion, LC-MS/MS, xQUEST (FDR < 0.05); both purified
[4] = target: DmNnf1b (Drosophila melanogaster) (UniProt Q8IPW3); experiment: as above

## DmNnf1b (from UniProt Q8IPW3)
[1]
  binding: binds
[2]
  binding: binds

## DmKmn1 (Kmn1^Nsl1) (from UniProt Q9VYX4)
[1]
  binding: binds
[3]
  binding: binds
[4]
  binding: binds

## DmNnf1a (from UniProt Q7JZC9)
[1]
  binding: binds
[2]
  binding: binds
